{
  "source": "PubChem BioAssay AID686971",
  "about": "(National Center for Advancing Translational Sciences (NCATS), 2013)",
  "note": "The entries are a selection whose mix differs from that of the whole data set. Inconclusive results are not listed. Activity calls are given as the source filed them. The call rests on the fitted dose curve; in most records, active means well fitted cell-killing curve with a large enough effect; inconclusive means small, poorly fitted or top-dose-only effect, or effect the other way, or another doubt; inactive means no such curve, though single readings can be large or run the other way.",
  "data": [
    {"assay": "qHTS for induction of synthetic lethality in tumor cells producing 2HG: qHTS for the HT-1080-IDH1KD cell line; further: potency means the concentration at half of the fitted maximal effect", "conditions": "HT-1080 IDH1 knockdown viability, ATP luminescence, 48 h", "description": "Unbiased genomic sequencing for 22 glioma genomes found recurrent mutation of IDH1 on chromosome 2q33, a gene encoding the cytosolic isoform of IIDH1 associated with the tri-carboxylic acid cycle (TCA) that catalyzes the oxidative decarboxylation of isocitrate, yielding alpha-ketoglutarate and CO2 via NADP+ to NADPH conversion. Subsequent studies confirmed the recurrent IDH mutations in up to 70% of secondary gliomas and in 10% of AML cases. […]\nSuspensions of trypsinized HT-1080-IDH1KD cells were dispensed into white, tissue culture-treated, solid 1536-well plates at 5uL/well (750 cells/well final concentration) in RPMI medium supplemented with 5% FBS. […] The plates were measured on a PerkinElmer ViewLux plate reader for luminescent signal (clear filter, 1 sec exp.). […]\nConcentration-response curves were fitted to the signals arising from the resulting luminescence. The concentration-effect curves were then classified based on curve quality (r2), response magnitude and degree of measured activity, and compounds were subsequently categorized based on their curve class.", "values": [
      {"compound": "CCOC(=O)NC1CCc2cc(OC)c(OC)c(OC)c2-c2ccc(OC)c(=O)cc21", "note": "(stereo unspecified)", "Potency": "active: 8.2 nM"}
    ]}
  ]
}
